From PubChem BioAssay AID445 (National Center for Advancing Translational Sciences (NCATS), 2006)
Some of the results follow. These are further read-outs of the screen, such as a control signal, another cell line or another target. No call is given for them. Most of these compounds were active or inconclusive in the main read-out, so they are no random draw. Words in brackets tell the shape of the fitted curve; partial curves, single points and poor fits give uncertain potencies.

Test: IkB Signaling
Conditions: ABC-DLBCL IkBa-CBG/CBR dual luciferase ratio (green luciferase fused to IkBa over red control in OCI-Ly3 lymphoma cells), 4 h
Procedure, shortened: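 In this assay, an IκBα–CBG68 fusion accumulates when IKK-driven degradation is blocked; native CBR normalizes for cell number. OCI-Ly3 cells were treated 4 h with compound and doxycycline, then green and red light read after Chroma-Glo addition.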

[1] = measured here: control luc red channel unless noted

Compound: COc1ccc(N2CCN(CC(O)COc3ccccc3C(C)(C)C)CC2)cc1 (configuration not stated)
- AC50 [1]: 31.6 µM [falling, partial curve]

Compound: Cc1ccc(C(=O)Nc2cccc(C(=O)OCc3cc(=O)n4c5c(sc4n3)CCCC5)c2)cc1
- AC50 [1]: 0.501 µM [falling, full curve]

Compound: Cc1ccc(NC(=O)C2CCCN(S(=O)(=O)c3cccc4cccnc34)C2)cc1Cl (configuration not stated)
- AC50 [1]: 39.8 µM [falling, single point]

Compound: Cc1ccc2[nH]cc(C(c3ccccc3)c3cccs3)c2c1 (configuration not stated)
- AC50 [1]: 39.8 µM [falling, single point]

Compound: Cc1ccc(-c2nc(-c3nccc4ccccc34)oc2-c2ccccc2)cc1
- AC50 [1]: 3.16 µM [falling, partial curve]

Compound: CCCCN(CC)C(=O)Cn1c(=O)n(-c2ccc(OCC)cc2)c(=O)c2c3c(sc21)CCC3
- AC50 [1]: 39.8 µM [falling, single point]

Compound: Cc1ccccc1NC(=O)c1ccccc1O
- AC50 [1]: 25.1 µM [falling, single point]

Compound: Cc1ccc(C2CCN(C(=O)c3cnn(-c4ccccc4Cl)c3C3CCN(C(=O)OC(C)(C)C)CC3)C2)cc1 (configuration not stated)
- AC50 [1]: 12.6 µM [falling, partial curve]

Compound: O=C(Nc1cccc(C(=O)OCc2cc(=O)n3c4c(sc3n2)CCCC4)c1)c1ccccc1
- AC50 [1]: 1 µM [falling, full curve]

Compound: O=C(c1nc2ccccc2s1)N1CCN(c2ccccn2)CC1
- AC50 [1]: 10 µM [falling, partial curve]

Compound: O=c1[nH]c(-c2cccs2)nc2ccccc12
- AC50 [1]: 20 µM [falling, partial curve]

Compound: CCOc1ccc(S(=O)(=O)Nc2nc3ccccc3nc2Nc2ccc(OC)cc2)cc1
- AC50 [1]: 3.16 µM [falling, partial curve]

Compound: COc1ccc(NC(=O)CCc2nnc3n(CC(C)C)c(=O)c4ccccc4n23)cc1
- AC50 [1]: 39.8 µM [falling, single point]

Compound: COCC(C)NC(=O)c1cc(-c2cccc(OC)c2)on1 (configuration not stated)
- AC50 [1]: 10 µM [falling, partial curve]

Compound: CCc1ccccc1NC(=O)C1CCCN(c2ncnc3onc(C)c23)C1 (configuration not stated)
- AC50 [1]: 31.6 µM [falling, partial curve, poor fit]

Compound: O=S(=O)(Cc1nc2ccccc2s1)c1ccccc1
- AC50 [1]: 39.8 µM [falling, single point]

Compound: Cc1ccc(Cl)cc1-n1ncc2c(Nc3cccc(C)c3C)ncnc21
- AC50 [1]: 25.1 µM [falling, partial curve]

Compound: O=C(c1ccc(CSc2nc3ccncc3n2Cc2ccccc2)cc1)N1CCCCCC1
- AC50 [1]: 12.6 µM [falling, partial curve]

Compound: Cc1cnn(C(=S)NCc2ccc(Cl)cc2)c1
- AC50 [1]: 20 µM [falling, partial curve]

Compound: CCc1nn2c(=O)cc(COC(=O)c3ccccc3NC(=O)C3CCCCC3)nc2s1
- AC50 [1]: 39.8 µM [falling, single point]

Compound: CCc1ccc(CNCc2c(C(=O)O)n(Cc3ccc(F)cc3Cl)c3cc(OC)ccc23)cc1
- AC50 [1]: 7.94 µM [falling, partial curve]

Compound: COc1cc2ccccc2cc1C(=O)N1CCN(c2nc3ccc(F)cc3s2)CC1
- AC50 [1]: 15.8 µM [falling, partial curve]

Compound: COc1cc(CCC(=O)NCc2ccc3c(c2)CCN3C(=O)c2ccc(F)cc2)cc(OC)c1OC
- AC50 [1]: 0.01 µM [falling, full curve]

Compound: CCOC(=O)c1ccc(N2C(=O)C3C(C2=O)C(C(=O)c2ccc(Cl)cc2)N2CCCC32)cc1 (configuration not stated)
- AC50 [1]: 12.6 µM [falling, partial curve]

Compound: CSC1CCCCC1(O)CSc1nc2ccccc2o1 (configuration not stated)
- AC50 [1]: 39.8 µM [falling, single point]

Compound: CCOC(=O)c1c(C)n(C)c2ccc(OCC(O)Cn3c(C)nc4ccccc43)cc12 (configuration not stated)
- AC50 [1]: 10 µM [falling, partial curve]

Compound: CSc1ccccc1NC(=O)COc1ccc(S(=O)(=O)N2CCCC2)cc1
- AC50 [1]: 12.6 µM [falling, partial curve]

Compound: CC(=O)c1ccc(NC(=O)c2ccc(-c3nc(CSc4ccccc4)c(C)o3)cc2)cc1
- AC50 [1]: 1.26 µM [falling, partial curve]

Compound: Cn1c(=O)c2c(nc(Br)n2CCCc2ccccc2)n(C)c1=O
- AC50 [1]: 20 µM [falling, partial curve]

Compound: CSc1ccc(-c2nc(CSCC(=O)N3CCOCC3)c(C)o2)cc1
- AC50 [1]: 12.6 µM [falling, partial curve]

Compound: Fc1ccc(-c2noc3ncnc(NCC4CCN(Cc5ccc(Cl)cc5)CC4)c23)cc1
- AC50 [1]: 20 µM [falling, single point]

Compound: CCN1CCN(S(=O)(=O)c2cc(OCC(=O)NC3CCCCC3)c(C)cc2Cl)CC1
- AC50 [1]: 2 µM [falling, full curve]

Compound: COc1cc(OC)cc(-c2nnc(SCC(=O)N(Cc3ccccc3)C(C)(C)C)o2)c1
- AC50 [1]: 25.1 µM [falling, partial curve]

Compound: COc1cc(NC(=O)c2cc(C)nc3c2c(C)nn3-c2ccccc2Cl)cc(OC)c1
- AC50 [1]: 39.8 µM [falling, single point]

Compound: Cc1ccc(C(=O)Nc2ccc(S(=O)(=O)N3CCc4ccccc4C3)cc2)o1
- AC50 [1]: 10 µM [falling, partial curve]

Compound: Cc1cc(C)c2nc(N3CCC(C(=O)N4CCCC4)CC3)sc2c1
- AC50 [1]: 12.6 µM [falling, partial curve]

Compound: Cc1ccc2cc3c(N)nn(C(=O)c4cccc(F)c4)c3nc2c1
- AC50 [1]: 39.8 µM [falling, single point]

Compound: COc1ccc(CCNC(=O)c2cnc3sc(N4CCCC4)nn3c2=O)cc1OC
- AC50 [1]: 25.1 µM [falling, single point]

Compound: CSCCC(NS(=O)(=O)c1ccc2c(c1)oc(=O)n2C)C(=O)N1CCN(c2cccc(Cl)c2)CC1 (configuration not stated)
- AC50 [1]: 10 µM [falling, partial curve]

Compound: Cc1ccc(CN(Cc2ccco2)C(=O)COc2ccc(Cl)cc2)o1
- AC50 [1]: 39.8 µM [falling, single point]

Compound: COc1cc(NC(=O)c2cc3ccccn3n2)cc(OC)c1OC
- AC50 [1]: 0.631 µM [rising, partial curve]

Compound: COc1ccc(N2CCN(C(=O)c3cccc(NC(=O)c4nsc5ccccc45)c3)CC2)cc1
- AC50 [1]: 0.631 µM [rising, full curve, poor fit]

Compound: CCOC(=O)c1ccc(NC(=O)Nc2cc3c(cc2N2CCCC2)n(C)c(=O)n3C)cc1
- AC50 [1]: 39.8 µM [falling, single point]

Compound: COC(=O)c1cc(NC(=O)c2nn(C)c3c2COc2ccccc2-3)cc(C(=O)OC)c1
- AC50 [1]: 12.6 µM [falling, partial curve]

Compound: COc1ccc(S(=O)(=O)Nc2ccc3c(c2)CCCN3S(=O)(=O)c2ccc(C)cc2)cc1F
- AC50 [1]: 31.6 µM [falling, single point]

Compound: CCOc1ccc(S(=O)(=O)Nc2cc(OC)ccc2OC)cc1
- AC50 [1]: 2.51 µM [rising, full curve] [measured here: IkB-luc green channel]

Compound: CCC(CC)C(=O)Nc1nc2c(s1)CC(C)CC2 (configuration not stated)
- AC50 [1]: 25.1 µM [falling, partial curve]

Compound: Cc1cc(C)cc(NC(=O)Cn2nnc(-c3nc(-c4ccncc4)no3)c2N)c1
- AC50 [1]: 2 µM [rising, single point]

Compound: Cc1cc2c(cc3c(SCc4nc(-c5ccccc5)oc4C)nnc(C)n32)o1
- AC50 [1]: 20 µM [falling, single point]

Compound: Cc1ccc(N2CCN(S(=O)(=O)c3ccc(F)c(C(=O)Nc4ccc(Cl)cc4Cl)c3)CC2C)cc1 (configuration not stated)
- AC50 [1]: 1.26 µM [falling, full curve, poor fit]

Compound: CC1CCN(CCC(=O)N2CCCc3c2c(=O)oc2ccc(O)cc32)CC1
- AC50 [1]: 12.6 µM [falling, partial curve]

Compound: CCn1ccc2c(OCC(=O)Nc3ccccc3C)cccc2c1=O
- AC50 [1]: 0.316 µM [falling, full curve, poor fit]

Compound: CCOC(=O)Cn1c(=O)oc2cc(S(=O)(=O)N3CCN(c4ccc(C(C)=O)cc4)CC3)ccc21
- AC50 [1]: 15.8 µM [falling, partial curve]

Compound: CCOc1ccc(S(=O)(=O)c2cn(Cc3cc(C)ccc3C)c3ccc(OCC)cc3c2=O)cc1
- AC50 [1]: 1.58 µM [falling, full curve]

Compound: COc1cccc(-c2nc(CS(=O)(=O)CC(=O)Nc3cccc(C)c3C)c(C)o2)c1
- AC50 [1]: 20 µM [falling, partial curve]

Compound: COc1cccc(C(=O)Nc2cccc(-c3nc4ncccc4o3)c2C)c1
- AC50 [1]: 3.16 µM [falling, full curve, poor fit]

Compound: CCOc1ccc(NC(=O)c2cc(S(=O)(=O)N3CCOCC3)ccc2F)cc1
- AC50 [1]: 10 µM [falling, partial curve]

Compound: CCCOC(=O)c1ccc(Cn2nnc3sc4c(c3c2=O)CCC(C)C4)cc1 (configuration not stated)
- AC50 [1]: 6.31 µM [falling, partial curve]

Compound: CO[C@@H]1CC[C@@]2(C)[C@@H](CC[C@@]3(C)[C@H]2CC=C2[C@H]4CC(C)(C)[C@H](O)[C@@H](OC(C)=O)[C@]4(CO)[C@H](O)C[C@]23C)[C@@]1(C)CO (tested in a mixture with another compound)
- AC50 (measured here: IkB-luc green channel): 7.94 µM [rising, partial curve]
- AC50 (measured here: control luc red channel): 10 µM [rising, partial curve]

Compound: COc1ccccc1NC(=O)C1=C(C)Nc2nc(SCc3ccccc3)nn2C1c1cccnc1 (configuration not stated)
- AC50 [1]: 12.6 µM [falling, partial curve, poor fit]

Compound: CCOC(=O)c1cc(C#N)c(SCC(=O)c2cc(C#N)c(SC)nc2C)[nH]c1=O
- AC50 [1]: 39.8 µM [falling, single point]
